Results are given in words; binding and its absence hold for the method and conditions named. For part of these data: In cells and extracts the contact can be indirect. For part of these data: Binding calls can cover weak binding; strength is not graded here. Where a sequence is shown, tags or fusion partners need not be part of it.
How the values were obtained:
[1] = target: SCMV-BJ VPg-YFP^N (BiFC fusion, pUC-SPYNE) (Sugarcane mosaic virus, Beijing isolate (SCMV-BJ)); assay: split reporter; BiFC: YFP^N and YFP^C fusions co-transfected into maize protoplasts; YFP fluorescence captured at 12-18 h post transfection by confocal microscopy
[2] = target: YFP^C-ZmElc (BiFC fusion, pGD-YFP^C-ZmELC) (maize (Zea mays)); assay: as above
[3] = target: maize Elongin C (ZmElc), Gal4 DNA-binding domain fusion (pGBKT7-ZmELC) (maize (Zea mays)); assay: two-hybrid; pGBKT7 and pGADT7 constructs co-transformed into yeast strain AH109; growth on SD/-Ade/-His/-Leu/-Trp at 30°C for 3-4 d

B1: ZmeIF4E-YFP^C (BiFC fusion) (protein, UniProt O81481 1-218)
chain: MAEETDTRPASAGSRGRPAPEDDDREEGEITDLACAPSPPATHPLEHSWTFWFDNPQSKSKQAAWGSSIRPIHTFSTVEEFWGLYNNINHPSKLIVGADFHCFKNKIEPKWEDPICANGGKWTISCGRGKSDTFWLHTLLAMIGEQFDYGDEICGAVVSVRGKQERIAIWTKNAANEAAQVSIGKQWKELLDYKDSIGFIVHDDAKKMDKGLKNRYTV
- binding [1]: binds

B2: ZmeIF4E-YFP^N (BiFC fusion) (protein, UniProt O81481 1-218)
chain: MAEETDTRPASAGSRGRPAPEDDDREEGEITDLACAPSPPATHPLEHSWTFWFDNPQSKSKQAAWGSSIRPIHTFSTVEEFWGLYNNINHPSKLIVGADFHCFKNKIEPKWEDPICANGGKWTISCGRGKSDTFWLHTLLAMIGEQFDYGDEICGAVVSVRGKQERIAIWTKNAANEAAQVSIGKQWKELLDYKDSIGFIVHDDAKKMDKGLKNRYTV
- binding [2]: no binding

B3: maize eukaryotic translation initiation factor 4E (ZmeIF4E), Gal4 activation domain fusion (pGADT7-ZmeIF4E) (protein, UniProt O81481 1-218)
chain: MAEETDTRPASAGSRGRPAPEDDDREEGEITDLACAPSPPATHPLEHSWTFWFDNPQSKSKQAAWGSSIRPIHTFSTVEEFWGLYNNINHPSKLIVGADFHCFKNKIEPKWEDPICANGGKWTISCGRGKSDTFWLHTLLAMIGEQFDYGDEICGAVVSVRGKQERIAIWTKNAANEAAQVSIGKQWKELLDYKDSIGFIVHDDAKKMDKGLKNRYTV
- binding [3]: no binding

— PMC4143955
